Measurements as given in PMC7947288.
These are yes or no findings as the source states them, for the method shown. In cells and extracts the contact can be indirect. These calls come from enrichment with a bait or labelling near it, and not all partners need be listed. For some of these results: Where a sequence is shown, tags or fusion partners need not be part of it.

Chains of the proteins cited; added tags and fusions are not shown.
UniProt P11142: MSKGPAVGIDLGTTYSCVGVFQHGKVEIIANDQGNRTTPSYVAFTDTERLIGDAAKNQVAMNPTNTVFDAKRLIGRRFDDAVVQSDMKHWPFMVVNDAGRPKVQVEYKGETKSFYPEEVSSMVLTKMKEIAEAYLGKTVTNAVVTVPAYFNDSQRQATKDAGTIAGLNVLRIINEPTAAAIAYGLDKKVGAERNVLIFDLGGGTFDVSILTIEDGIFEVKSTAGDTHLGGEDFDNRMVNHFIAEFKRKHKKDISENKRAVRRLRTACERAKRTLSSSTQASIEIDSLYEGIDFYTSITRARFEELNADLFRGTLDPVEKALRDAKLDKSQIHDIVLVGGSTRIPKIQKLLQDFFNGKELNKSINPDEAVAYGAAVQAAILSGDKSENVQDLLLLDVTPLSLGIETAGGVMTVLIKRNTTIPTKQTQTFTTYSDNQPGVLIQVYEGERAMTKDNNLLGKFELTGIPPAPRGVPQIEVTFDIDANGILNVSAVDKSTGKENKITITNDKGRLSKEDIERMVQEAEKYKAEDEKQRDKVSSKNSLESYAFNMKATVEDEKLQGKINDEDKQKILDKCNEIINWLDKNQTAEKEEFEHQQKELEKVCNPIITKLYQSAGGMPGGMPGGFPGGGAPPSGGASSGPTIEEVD

Assays:
Assay in all cases: affinity purification with mass spectrometry; 293T cells transfected with Flag-tagged NSD2 isoform, Flag alone as control; lysed after 48 h, immunoprecipitation, SDS-PAGE, silver-stained strips analysed by LTQ-ESI-MS, label-free quantification, three biological replicates
[1] = target: Flag-tagged NSD2 Isoform 1 (human) (UniProt O96028)
[2] = target: T1, Flag-tagged NSD2 Isoform 5 (human) (UniProt O96028)
T1 sequence: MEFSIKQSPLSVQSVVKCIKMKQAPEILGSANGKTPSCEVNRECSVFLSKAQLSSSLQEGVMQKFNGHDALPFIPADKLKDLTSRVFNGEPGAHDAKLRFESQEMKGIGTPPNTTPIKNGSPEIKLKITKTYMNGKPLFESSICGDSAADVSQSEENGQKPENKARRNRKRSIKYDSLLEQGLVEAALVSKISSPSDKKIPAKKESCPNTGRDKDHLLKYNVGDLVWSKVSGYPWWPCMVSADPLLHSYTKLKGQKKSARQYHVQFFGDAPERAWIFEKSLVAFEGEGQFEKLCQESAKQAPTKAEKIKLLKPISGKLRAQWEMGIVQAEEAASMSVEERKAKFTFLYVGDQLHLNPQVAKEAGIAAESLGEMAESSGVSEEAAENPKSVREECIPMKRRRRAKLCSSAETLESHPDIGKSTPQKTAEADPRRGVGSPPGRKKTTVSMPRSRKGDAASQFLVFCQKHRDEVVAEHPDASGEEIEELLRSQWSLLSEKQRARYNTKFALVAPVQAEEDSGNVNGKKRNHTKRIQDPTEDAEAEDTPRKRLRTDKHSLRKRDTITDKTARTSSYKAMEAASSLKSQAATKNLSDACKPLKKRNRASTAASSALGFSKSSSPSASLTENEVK

[3] = target: T2, Flag-tagged NSD2 Isoform 7 (human) (UniProt O96028)
T2 sequence: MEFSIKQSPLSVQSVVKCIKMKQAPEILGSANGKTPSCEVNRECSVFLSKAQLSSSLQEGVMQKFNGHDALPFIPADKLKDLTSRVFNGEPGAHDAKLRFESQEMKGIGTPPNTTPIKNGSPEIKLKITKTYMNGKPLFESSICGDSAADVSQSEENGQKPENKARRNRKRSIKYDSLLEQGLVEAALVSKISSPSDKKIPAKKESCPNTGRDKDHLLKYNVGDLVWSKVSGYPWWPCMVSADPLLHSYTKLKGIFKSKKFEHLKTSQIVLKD

[4] = target: T3, Flag-tagged NSD2 Isoform 3 (human) (UniProt O96028)
T3 sequence: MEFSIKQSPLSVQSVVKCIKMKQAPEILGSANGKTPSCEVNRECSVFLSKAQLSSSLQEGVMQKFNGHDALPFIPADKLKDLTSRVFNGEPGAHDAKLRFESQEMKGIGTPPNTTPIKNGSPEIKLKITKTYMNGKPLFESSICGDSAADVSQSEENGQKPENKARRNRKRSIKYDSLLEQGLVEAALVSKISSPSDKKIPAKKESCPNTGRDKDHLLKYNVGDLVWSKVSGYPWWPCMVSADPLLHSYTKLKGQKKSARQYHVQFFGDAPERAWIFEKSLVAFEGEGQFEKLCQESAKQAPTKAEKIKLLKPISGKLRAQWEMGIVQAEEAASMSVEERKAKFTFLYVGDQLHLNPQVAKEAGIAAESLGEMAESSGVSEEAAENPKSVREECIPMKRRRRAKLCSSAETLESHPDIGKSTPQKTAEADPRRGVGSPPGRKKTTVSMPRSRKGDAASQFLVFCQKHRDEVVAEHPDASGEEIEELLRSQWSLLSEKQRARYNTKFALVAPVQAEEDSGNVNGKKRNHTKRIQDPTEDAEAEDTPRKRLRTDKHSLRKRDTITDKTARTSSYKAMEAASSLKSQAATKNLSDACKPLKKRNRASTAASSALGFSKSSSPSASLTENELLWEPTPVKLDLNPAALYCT

Measured: binding

HSPA8 (endogenous, found by IP-MS) (from UniProt P11142 1-646)
binds: all assays above
